Like-named read-outs stand apart in the source and are kept apart here. For part of these data: The name of at least one read-out is uncertain. For part of these data: At least one compound was matched to its structure with a doubt left.
Assays:
[1] = type: physicochemical; settings: 10^-4 M, 0.01M tetrabutylammonium fluoride in 2-methoxyethanol, room temperature; 100 µM
[2] = type: physicochemical
[3] = test system: Acetylcholinesterase from human erythrocytes; assay: Enzymatic triggering of chemiluminescence with acetylcholinesterase; type: biochemical; settings: phosphate buffer pH 8.0, 37.0° C.

## COC1(c2ccc3cc(O[Si](C)(C)C(C)(C)C)ccc3c2)OOC12C1CC3CC(C1)CC2C3 (stereo not drawn) [Dioxetane 2c]
[1]
  half-life of chemiluminescence decay after fluoride triggering: about 20 minutes

## COC1(c2ccc3cc(OC(C)=O)ccc3c2)OOC12C1CC3CC(C1)CC2C3 (stereo not drawn) [Dioxetane 2e, 4-(6-Acetoxy-2-naphthyl)-4-methoxyspiro[1,2-dioxetane-3,2' -adamantane]]
[2]; 0.02M Tris buffer pH 7.6, 25° C., 30 minute delay
  percent decrease in IMAX due to delay: 12%
[2]; 0.02M Tris buffer pH 7.6, 37° C., delay of one hour, 60 min
  percent decrease in IMAX due to delay: 34%
[2]; 0.05M phosphate buffer pH 7.6, 25° C., 30 minute delay
  percent decrease in IMAX due to delay: 0%
[2]; 0.05M phosphate buffer pH 7.6, 37° C., 30 minute delay
  percent decrease in IMAX due to delay: 7%

## CC(=O)OCC[N+](C)(C)C [acetylcholine]
[3]
  inhibition of enzymatic chemiluminescent reaction of 2e: reversibly inhibited
